The text below walks through data of patent US8192854B2, “Microbial fuel cell treatment of ethanol fermentation process water” (priority 2009, dated 2012).

Series [1] has as its system inhibitor-consuming microbial consortium in a microbial fuel cell (MFC-A). Kind of series: Power density analysis of MFC with individual inhibitor as substrate, ferricyanide cathode.
Series [2] shares this test system. Kind of series: Coulombic efficiency and HPLC analysis of inhibitor conversion in MFC. As to conditions: individual substrate in MFC.
Series [3] shares this test system. Kind of series: Removal of inhibitor mixture during enrichment of consortium in MFC-A. As to conditions: mixture of 0.2 g/L 2-furfural, 0.1 g/L HB, 0.1 g/L HAP, 0.5 g/L VA added at time zero.

The compound `O=Cc1ccco1` [2-furfural] displayed a volumetric power density in series [1] (converted from area power density with anode specific surface area 79 m^2/m^3 and NAV 0.83) of 332 W/m^3. The same compound gave a maximum power density in series [1] (substrate at 0.2 g/L, projected anode area) of 3490 mW/m^2. In addition, in series [2], the “coulombic efficiency (CE)” value was 69 ±3%; the “degree of mineralization (coulombic efficiency and HPLC data)” value is on record as “near complete mineralization”. Also, in series [3], the “time of consumption of substrate” value worked out at 7 days.
